For at least one compound, name, drawing or mass did not settle the structure.
System: MECP2 mRNA
Assay: qPCR of MECP2 mRNA in mouse liver
Format: in vivo
Details: qPCR relative to DMSO control; legend says 10 uM (FIG. 9)

## C=CCNC1=C2C[C@@H](C)C[C@H](OC)[C@H](O)[C@@H](C)/C=C(\C)[C@H](OC(N)=O)[C@@H](OC)/C=C\C=C(/C)C(=O)NC(=CC1=O)C2=O [17-AAG (Tanespimycin), Tanespimycin]
  MECP2 mRNA change in mouse liver: increased
